# Columns and labels:
# By UniProt entry, the sequences of proteins in these tests, tags left out. Where a name states a change or a piece, a line headed by the entry shows the natural chain unless it says otherwise.
# UniProt P07659: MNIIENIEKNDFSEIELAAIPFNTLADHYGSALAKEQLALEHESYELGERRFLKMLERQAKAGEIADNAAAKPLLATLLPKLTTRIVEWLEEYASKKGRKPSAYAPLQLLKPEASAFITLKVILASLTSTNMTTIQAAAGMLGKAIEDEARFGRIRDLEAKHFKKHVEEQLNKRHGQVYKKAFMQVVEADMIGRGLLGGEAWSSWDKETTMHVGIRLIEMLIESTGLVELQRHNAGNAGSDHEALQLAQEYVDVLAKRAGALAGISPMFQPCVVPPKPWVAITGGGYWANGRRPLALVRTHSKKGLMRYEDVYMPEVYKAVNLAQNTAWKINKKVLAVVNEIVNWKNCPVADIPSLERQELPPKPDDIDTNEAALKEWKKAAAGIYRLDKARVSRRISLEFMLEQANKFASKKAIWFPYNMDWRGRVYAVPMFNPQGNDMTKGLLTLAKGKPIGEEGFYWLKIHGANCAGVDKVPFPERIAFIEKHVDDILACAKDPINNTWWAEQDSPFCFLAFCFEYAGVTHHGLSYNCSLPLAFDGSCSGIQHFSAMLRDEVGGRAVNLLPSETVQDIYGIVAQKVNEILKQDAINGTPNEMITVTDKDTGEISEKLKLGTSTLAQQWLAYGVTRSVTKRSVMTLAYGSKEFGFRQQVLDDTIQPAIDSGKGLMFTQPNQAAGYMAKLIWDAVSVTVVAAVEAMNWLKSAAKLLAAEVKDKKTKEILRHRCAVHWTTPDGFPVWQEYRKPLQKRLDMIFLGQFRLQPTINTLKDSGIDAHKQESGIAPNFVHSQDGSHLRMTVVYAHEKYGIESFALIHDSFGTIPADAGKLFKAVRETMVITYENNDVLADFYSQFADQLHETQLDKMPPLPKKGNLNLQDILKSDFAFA
# UniProt P00573: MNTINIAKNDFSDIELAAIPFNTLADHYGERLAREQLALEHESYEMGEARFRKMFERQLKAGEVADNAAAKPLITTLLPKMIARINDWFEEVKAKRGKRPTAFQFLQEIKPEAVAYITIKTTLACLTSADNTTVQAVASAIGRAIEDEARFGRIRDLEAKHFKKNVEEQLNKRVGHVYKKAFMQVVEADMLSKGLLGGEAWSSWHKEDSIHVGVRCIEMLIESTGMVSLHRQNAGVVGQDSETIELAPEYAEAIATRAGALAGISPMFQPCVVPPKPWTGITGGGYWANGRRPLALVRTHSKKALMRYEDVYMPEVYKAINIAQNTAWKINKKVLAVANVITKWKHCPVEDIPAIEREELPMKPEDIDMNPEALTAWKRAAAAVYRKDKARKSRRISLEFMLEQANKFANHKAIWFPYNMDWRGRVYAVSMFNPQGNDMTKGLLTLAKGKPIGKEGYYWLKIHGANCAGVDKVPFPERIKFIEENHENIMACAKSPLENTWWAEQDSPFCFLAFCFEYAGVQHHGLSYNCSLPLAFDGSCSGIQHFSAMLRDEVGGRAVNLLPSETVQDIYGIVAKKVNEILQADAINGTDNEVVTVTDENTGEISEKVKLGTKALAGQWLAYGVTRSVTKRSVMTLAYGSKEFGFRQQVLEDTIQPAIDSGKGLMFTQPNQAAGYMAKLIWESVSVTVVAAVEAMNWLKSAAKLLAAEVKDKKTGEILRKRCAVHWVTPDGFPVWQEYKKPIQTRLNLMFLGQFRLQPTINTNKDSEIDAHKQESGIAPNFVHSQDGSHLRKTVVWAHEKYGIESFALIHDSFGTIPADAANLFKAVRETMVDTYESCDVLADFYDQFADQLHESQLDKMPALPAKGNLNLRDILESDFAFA
# Experiment in all cases: activity assay
# [1] = molecular target: T3 RNA polymerase (Bacteriophage T3) (UniProt P07659); settings: in vitro transcription from amplified T7-GFP-T3 product, 37 C 60 min; purified recombinant protein; protein details: Promega RiboProbe kit
# [2] = test system: BP Clonase (lambda integrase recombination protein mix); settings: attB1-CAT-attB2 x pDONR222; 188 colonies (chemical) vs 0 vector only; purified recombinant protein; protein details: Invitrogen BP Clonase enzyme mix
# [3] = molecular target: T7 RNA polymerase (Bacteriophage T7) (UniProt P00573); settings: in vitro transcription from amplified T7-GFP-T3 product, 37 C 60 min; purified recombinant protein; protein details: Promega RiboProbe kit
sequence,measurement,setting,value
GGCCTAAAGGGTCCCTTTAGTGAGGGTTAATTGCGCGC (double strand) [T3 linker (T3top/T3bottom)],functional effect,[1],active
GGGGACAAGTTTGTACAAAAAAGCAGGCTTCCCTTCGGAAC (double strand) [attB1 adaptor],activity on this sequence,[2],active
GAAGGAGTAATACGACTCACTATAGGGAGCCACCATGGGCCCTTCGGAAC (double strand) [T7 linker (T7top/T7bottom)],functional effect,[3],active

# Source: patent US20040265863
